The text below walks through data of PubChem BioAssay AID2685 (National Center for Advancing Translational Sciences (NCATS), 2010).

The other results are listed elsewhere or left out. Further columns of the screen follow, without active or inactive calls. The list favours compounds with an active or inconclusive main result. Words in brackets tell the shape of the fitted curve; partial curves, single points and poor fits give uncertain potencies.

The nature of the assay: qHTS Assay for Lipid Storage Modulators in Drosophila S3 Cells.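 As to cell number change: cells counted by Cell Tracker Red CMTPX staining in the red channel.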 As to conditions: BODIPY lipid droplet fluorescence, 18-24 h; for cell number change: measured here: cell count max response, cells fed with added oleic acid. The procedure, abridged: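 Laser-scanning cytometry quantifies lipid droplet accumulation (500–530 nm total intensity; droplet/cell object ratio) in oleic acid-fed (400 uM added) Drosophila S3 cells treated with a concentration series. 20 uM Triacsin C defined 100% inhibition.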
In general terms: In qHTS, concentration-response curves come from the screen itself.

Setting [1] is: measured here: lipid fluorescence (Fed channel) AC50, cells fed with added oleic acid.
Where [2] appears, read: measured here: cell number channel AC50, cells fed with added oleic acid.

As to `CCc1ccc(-c2cc3c(=O)n(CC(=O)N4CCCCCC4)nc(C)n3n2)cc1`, the cell number change was found to be 18.8%.
The same measure, in the same setting: with `Cc1cc(C)c(S(=O)(=O)N2CCCC(C(=O)NC3CCCC3)C2)c(C)c1` (stereo unspecified) the figure was 14.6%.
One may read the AC50 as the concentration at which the activity in the assay is half-maximal. Read a high AC50 as weaker potency. Regarding `CCOc1cc(C(=S)N2CCOCC2)ccc1OS(=O)(=O)c1ccccc1`, the cell number change was 13.8%. For the same compound, the AC50 under setting [1] is 1.46 µM [rising, partial curve].
Regarding `Cc1c(CC(=O)NCC(=O)N[C@H](Cc2ccccc2)C(=O)O)c(=O)oc2cc(O)ccc12`, the cell number change was found to be 25.9%. Moreover, under setting [1], the AC50 is 29.1 µM [falling, single point].
Turning to `COc1nc(N2CCCCCC2)nc(N2CCCCCC2)n1`, the cell number change is -34.6%. Besides, under setting [2], the AC50 was 32.6 µM [falling, single point].
For the compound `COc1ccc(C)cc1Nc1nc(-c2c(C)[nH]c3ccccc23)cs1`, the cell number change is -2.41%.
Consider `CCSc1nc2ccccc2n1C(=O)/C=C\c1ccc(OC)c(OC)c1`, for which the cell number change was -59.3%. Further, the AC50 under setting [2] was 23.1 µM [falling, single point].
As to `CCOc1cc(CNCCSc2nnnn2C)cc(Br)c1OCc1ccc(F)cc1`, the cell number change was -31.6%. The AC50 under setting [2] was 13 µM [falling, single point]. Under setting [1], the AC50 is 16.4 µM [falling, single point].
As for `Cn1nccc1CNC(=O)c1c(Cl)cnn1C`, the cell number change is -2.07%. Moreover, the AC50 under setting [1] was 0.58 µM [falling, single point].
In the case of `CCOC(=O)C1(CC2CC2)CCN(C(=O)c2cc(C)nc3ccc(CC)cc23)CC1`, the cell number change was -18.6%.
As for `CC(=O)c1ccc(NC(=O)C(C)OC(=O)CCCN=C2NS(=O)(=O)c3ccccc32)cc1` (stereo unspecified), the cell number change was -8.48%. Besides, the AC50 under setting [1] was 6.51 µM [falling, single point].
For the compound `CCCCNC(=O)c1cc2c(=O)n3cccc(C)c3nc2n(Cc2ccncc2)c1=N`, the AC50 under setting [1] is 0.58 µM [rising, single point].
With `Cc1ccc(C(c2cc(Br)ccc2O)N2CCSCC2)cc1` (stereo unspecified), the cell number change is 14.4%. Moreover, under setting [1], the AC50 is 29.1 µM [falling, single point].
As for `COc1ccccc1NC(=O)N(c1c(N)n(Cc2ccccc2)c(=O)[nH]c1=O)C1CCCC1`, the cell number change amounted to 3.54%.
In the case of `Oc1ccc(-c2csc(Nc3ncccn3)n2)cc1O`, the cell number change is -6.09%.
On to `COc1ccc(C2=NO[C@@H]3C(=O)N(c4ccc(C)cc4C)C(=O)[C@H]23)cc1OC`, for which the cell number change came to 32.7%. The AC50 under setting [2] is 29.1 µM [rising, single point]. Besides, the AC50 under setting [1] is 0.116 µM [falling, full curve, poor fit].
As to `C=CCOc1ccccc1CN1CCCCCC1`, the cell number change was determined as 4.49%. For the same compound, under setting [1], the AC50 was 0.259 µM [rising, full curve, poor fit].
In the case of `CCN(C(=O)COC(=O)c1ccccc1NCCO)C1CCS(=O)(=O)C1` (stereo unspecified), the cell number change is -22.9%.
Turning to `Cc1oc(C(C)(C)C)cc1C(=O)NCc1ccc2c(c1)OCO2`, the cell number change was -22.9%. Further, the AC50 under setting [2] was 3.26 µM [falling, full curve, poor fit]. Under setting [1], the AC50 is 4.11 µM [falling, full curve].
With `CCOC(=O)c1c(C)nc2cc(C)cc(C)n12`, the half-maximal activity concentration (AC50) under setting [1] is 6.31 µM [rising, partial curve].
On the same count and under the same terms, in the case of `Oc1ccc(-c2nc3ccccc3nc2-c2ccccc2)cc1` it was 20.6 µM [falling, single point].
In the case of `O=C(Nc1ccccc1Cl)c1ccc(-n2cccn2)c([N+](=O)[O-])c1`, the cell number change is -6.46%.
Turning to `Cc1ccc(C2NC(=O)c3ccccc3O2)cc1` (stereo unspecified), the cell number change stood at 2.76%. Further, under setting [1], the AC50 was 29.1 µM [rising, single point].
Regarding `CC1CCCCN1CCNC(=O)c1cc2c(=O)n(C)c3ccccc3c2n1C` (stereo unspecified), the cell number change turned out to be 31.7%. The AC50 under setting [2] was 6.51 µM [rising, single point]. In addition, the AC50 under setting [1] was 0.731 µM [rising, partial curve].
As to `CCOc1ccccc1NC(=O)c1ccoc1C`, the cell number change came to 30.4%. For the same compound, the AC50 under setting [2] is 29.1 µM [rising, single point].
Regarding `C=CCN(c1ccccc1)S(=O)(=O)c1cccc(C(=O)NNC(=O)c2ccccc2O)c1`, the cell number change was determined as 35%. The AC50 under setting [2] was 18.4 µM [rising, single point]. Also, the AC50 under setting [1] is 18.4 µM [rising, single point].
Regarding `COc1ccc(CC(=O)OCC(=O)Nc2ccc3[nH]c(=O)[nH]c3c2)cc1`, the cell number change was -20.4%. The AC50 under setting [2] is 3.66 µM [falling, full curve, poor fit]. Further, the AC50 under setting [1] was 2.31 µM [falling, single point].
`O=C(N=c1ccn(-c2nc3ccccc3nc2NS(=O)(=O)c2ccccc2)cc1)c1ccccc1Cl`: the cell number change is -1.91%. Further, the AC50 under setting [1] is 29.1 µM [rising, single point].
Take `COCCCNS(=O)(=O)c1ccc(Cl)c(C(F)(F)F)c1`: the cell number change worked out at 56.9%. Moreover, the concentration at half-maximal activity (AC50) under setting [2] was 29.1 µM [rising, single point]. For the same compound, under setting [1], the AC50 is 29.1 µM [rising, single point].
`Cc1ccc(F)cc1NC(=O)C1C2CCC(O2)C1C(=O)O` (stereo unspecified): the cell number change is -18.5%. Also, under setting [1], the AC50 is 14.6 µM [rising, partial curve].
Turning to `CCOC(=O)C1CCN(C(=O)Cn2nc(C)n3nc(-c4ccc(OC)cc4)cc3c2=O)CC1`, the cell number change was -14.4%. In addition, under setting [1], the half-maximal activity concentration (AC50) was 3.66 µM [rising, full curve].
Regarding `CC1(C)CC(=O)c2cnc(NC3CC3)nc2C1`, the cell number change was -37.3%. The AC50 under setting [2] is 3.66 µM [falling, full curve]. The AC50 under setting [1] is 6.51 µM [falling, single point].
As for `CCOc1ccc(CC(=O)N/N=C(\C)c2cccnc2)cc1`, under setting [1], the AC50 was 0.58 µM [falling, single point].
On to `COc1ccc(S(=O)(=O)N2CCCC(C(=O)Nc3ccc(OC)c(OC)c3)C2)cc1` (stereo unspecified), for which the cell number change is -9.8%. Also, the AC50 under setting [1] was 18.4 µM [rising, partial curve].
Regarding `Nc1nc2sc3c(c2cc1C(=O)N1CCOCC1)CCCC3`, the cell number change is -8.73%. For the same compound, under setting [1], the AC50 was 0.00517 µM [falling, full curve, poor fit].
`CCCCNCCCCOc1ccccc1`: the cell number change was -30.7%. In addition, the concentration at half-maximal activity (AC50) under setting [1] is 0.116 µM [falling, partial curve, poor fit].
As for `COc1ccc(Nc2nc(N)nc(CSC(=S)N3CCCCC3C)n2)cc1` (stereo unspecified), the cell number change is -21.3%. Also, the AC50 under setting [1] was 23.1 µM [falling, partial curve].
Take `CCOC(=O)N1CCN(C(=O)CSc2nnc(-c3ccccc3OC)o2)CC1`: the cell number change is -7.99%. Also, the AC50 under setting [1] was 0.0184 µM [rising, full curve].
As to `Cc1cc(C(=O)Nc2ccc(N3CCOCC3)cc2)c2ccccc2n1`, the cell number change was 174%. Moreover, the AC50 under setting [2] was 16.4 µM [rising, partial curve]. Besides, the AC50 under setting [1] was 23.1 µM [rising, partial curve].
Take `Cn1c(=O)cc(Cl)[nH]c1=O`: the cell number change was -47.4%. Besides, the AC50 under setting [2] was 3.66 µM [falling, full curve]. Moreover, the AC50 under setting [1] was 5.8 µM [falling, full curve].
`CN(CC(=O)Nc1ccc(Cl)c(C(F)(F)F)c1)C(=O)C1CC(=O)N(C2CCCC2)C1` (stereo unspecified): the cell number change came out at 33.5%. For the same compound, under setting [2], the AC50 was 32.6 µM [rising, single point]. Besides, under setting [1], the AC50 is 0.651 µM [rising, single point].
For the compound `COc1ccc(C2C3=C(CC(C)(C)CC3=O)Oc3ncn(CCO)c(=N)c32)cc1OC` (stereo unspecified), the AC50 under setting [1] is 6.51 µM [rising, single point].
For `COC(=O)[C@@H](NC(=O)O[C@@H]1C(=O)c2ccc(OC)cc2O[C@H]1c1cccc(C(F)(F)F)c1)C(C)C`, the cell number change was -12.1%. For the same compound, the AC50 under setting [1] is 10.3 µM [rising, partial curve].
`COc1cccc(CNC(=O)CN(C)S(=O)(=O)c2ccc(Br)s2)c1`: the cell number change is -1.59%. In addition, the AC50 under setting [1] is 29.1 µM [rising, single point].
For `O=C(CSc1nc2cc(S(=O)(=O)N3CCOCC3)ccc2o1)Nc1c(F)cccc1F`, the cell number change turned out to be 37.8%. The AC50 under setting [2] was 0.13 µM [rising, partial curve].
As to `CC(=O)N1CCOc2ccc(S(=O)(=O)NCCc3ccc(S(N)(=O)=O)cc3)cc21`, the cell number change came out at 31.9%. Moreover, the AC50 under setting [1] is 29.1 µM [rising, partial curve].
`c1ccc2c(c1)nc(NCC1CCCO1)c1nnnn12` (stereo unspecified): the cell number change is 9.6%. The AC50 under setting [1] was 3.66 µM [rising, partial curve, poor fit].
With `O=c1[nH]c2ccccc2c2cn(-c3ccccc3)nc12`, the cell number change was 4.62%.
Regarding `COC(=O)c1ccc(C)c(NC(=O)CCc2ccc(OC)c(OC)c2)c1`, the cell number change is 15.9%. The AC50 under setting [1] is 2.91 µM [rising, partial curve].
Take `CC(C)NS(=O)(=O)c1ccc(OCC(=O)NC2CCCCCC2)cc1`: the cell number change is -47%. Under setting [2], the concentration at half-maximal activity (AC50) is 7.31 µM [falling, full curve, poor fit].
Consider `CC1CCCCC1NC1=NCCS1` (stereo unspecified), for which the AC50 under setting [1] was 0.00461 µM [falling, full curve].
`CNc1ccccc1NC(=O)CCn1c(=S)oc2ccccc21`: the cell number change stood at 23.2%. Further, under setting [1], the AC50 is 6.51 µM [rising, partial curve].
For the compound `Cc1cccc(C(=O)N2CCN(C(=O)c3cccc(C)c3)C(C)C2)c1` (stereo unspecified), the AC50 under setting [2] is 2.06 µM [rising, partial curve].
Regarding `CC1CCCCN1c1ncnc2ccccc12` (stereo unspecified), the cell number change is 7.76%. Besides, the AC50 under setting [1] was 6.51 µM [rising, single point].
On to `CC(=O)Nc1ccc2c(CSc3nnc(-c4cccnc4)n3-c3ccc(C)cc3C)cc(=O)oc2c1`, for which the cell number change was found to be 66.7%. Moreover, under setting [2], the concentration at half-maximal activity (AC50) was 0.00731 µM [falling, full curve, poor fit].
`Cn1c(SCC(=O)N2CCOCC2)nnc1-c1cccc(NC(=O)c2ccccc2F)c1`: the cell number change was -17.1%. The half-maximal activity concentration (AC50) under setting [1] is 18.4 µM [rising, single point].
For `CCOc1ccc(S(=O)(=O)N(C)CC(=O)NCc2ccc3c(c2)OCO3)cc1`, the cell number change was found to be 10.3%. For the same compound, the AC50 under setting [1] was 4.11 µM [falling, partial curve, poor fit].
Take `Cn1c(=Nc2ccccc2)sc2ccccc21`: the cell number change worked out at 37.9%. Also, under setting [2], the AC50 is 13 µM [rising, single point]. Also, the AC50 under setting [1] is 0.651 µM [falling, single point].
Turning to `COc1ccc([N+](=O)[O-])cc1NC(=S)Nc1ccccc1`, under setting [2], the AC50 is 6.51 µM [rising, single point].
With `Cc1c(C(=O)NN2CCN(C)CC2)cccc1[N+](=O)[O-]`, the cell number change was 10.9%.
On to `Cc1cc(C)nc(/N=C2\NC(=O)CC(C(=O)O)N2c2cccc(Cl)c2)n1` (stereo unspecified), for which the cell number change was -18.5%. For the same compound, the AC50 under setting [1] is 5.17 µM [falling, full curve, poor fit].
